From patent US20250136703A1 come the findings set out here.

These are yes or no findings as the source states them, for the method shown. Some binding calls cover weakened binding; strength is not graded here.

The target of this test is T1, IL13Ra2 on A375 cells (ATCC; Cat #: CRL-1619) (UniProt Q14627).
T1 sequence (looked up): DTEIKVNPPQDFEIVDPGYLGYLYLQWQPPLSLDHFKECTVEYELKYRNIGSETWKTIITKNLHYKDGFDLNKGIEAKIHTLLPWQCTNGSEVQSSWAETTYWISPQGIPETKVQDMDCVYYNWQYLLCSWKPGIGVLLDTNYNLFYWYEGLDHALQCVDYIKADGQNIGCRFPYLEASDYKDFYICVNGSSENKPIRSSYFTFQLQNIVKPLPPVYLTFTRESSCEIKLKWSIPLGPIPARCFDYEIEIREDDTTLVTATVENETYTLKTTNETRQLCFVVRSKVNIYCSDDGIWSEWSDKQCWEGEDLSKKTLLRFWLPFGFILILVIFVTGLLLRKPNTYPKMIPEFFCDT
The experiment in a line: flow cytometry on A375 cells.

B1: L3A6-H1L1 (humanized mAb constructed with L3A6-H1 heavy chain and L3A6-L1 light chain) (antibody, V domains shown)
VH: QVTLRESGPALVKPTQTLTLTCTASGYTFTNYWMNWVRQPPGKALEWIGRIDPSDTETHYNQEVKDRATLSVDKSKNQAVLTMTNMDPVDTATYYCARGYGTYYGMDYWGQGSLVTVSS
VL: DIVLTQSPDSLSVSLGERATINCRASESVDNYGISFMNWFQQKPGQPPKLLIYAASNQGSGVPDRFSGSGSGTDFTLTISSLQAEDVAVYFCQQSKEVPWTFGGGTKVEIK
As to B1, the binding entry is on record as “binds”.
